The nature of the experiment: qHTS Assay for Lipid Storage Modulators in Drosophila S3 Cells.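 On cell number change: cells counted by Cell Tracker Red CMTPX staining in the red channel.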 The settings on record: BODIPY lipid droplet fluorescence, 18-24 h; for cell number change: measured here: cell count max response, cells fed with added oleic acid. In a few lines: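 Laser-scanning cytometry quantifies lipid droplet accumulation (500–530 nm total intensity; droplet/cell object ratio) in oleic acid-fed (400 uM added) Drosophila S3 cells treated with a concentration series. 20 uM Triacsin C defined 100% inhibition.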
On the technique in general: qHTS replaces the single test concentration by a dilution series.

[1] abbreviates: measured here: lipid fluorescence (Fed channel) AC50, cells fed with added oleic acid.
Where [2] appears, read: measured here: cell number channel AC50, cells fed with added oleic acid.

SMILES strings stand for the structures. The list shows a part of the results. The main result of the screen is listed elsewhere. These columns were measured beside it and carry no call. The list favours compounds with an active or inconclusive main result. Potencies come from curve fits of mixed quality, noted in brackets.

These results are taken from PubChem BioAssay AID2685 (National Center for Advancing Translational Sciences (NCATS), 2010).

A word on the AC50: it is the midpoint of the concentration-response curve, whichever way the signal moves. As for `COCCCNC(=O)c1ccc(Cn2c(=O)c3ccccc3n(Cc3cc(C)ccc3C)c2=O)cc1`, the cell number change was -29.5%. The AC50 under setting [1] was 29.1 µM [rising, single point].

Take `O=C(NCCCN1CCN(c2cccc(Cl)c2)CC1)C1(S(=O)(=O)c2ccc(Cl)cc2)CC1`: the cell number change was 31%. The AC50 under setting [2] was 23.1 µM [rising, single point].

As to `COc1cc(CN(CCc2c(C)[nH]c3ccc(C)cc23)C(=S)NC(C)(C)C)cc(OC)c1OC`, the cell number change is -31.5%. In addition, the AC50 under setting [2] was 29.1 µM [falling, single point]. In addition, under setting [1], the AC50 was 29.1 µM [falling, single point].

In the case of `CCCCCCC#Cc1ccc2c(c1)COc1c3ccccc3nn1-2`, the cell number change was 35.5%. Further, the AC50 under setting [1] was 2.91 µM [rising, partial curve].

Consider `Cc1ccc(S(=O)(=O)N2CCC(C)CC2)cc1C(=O)NCc1ccccn1`, for which the cell number change was 19.8%. In addition, the AC50 under setting [1] is 29.1 µM [rising, single point].

On to `CCOC(=O)c1c(NC(=O)CN2CCCCC2)sc2c1CCCC2O` (configuration not stated), for which the cell number change is -55.1%. In addition, the AC50 under setting [2] is 23.1 µM [falling, partial curve]. Further, under setting [1], the AC50 was 3.26 µM [rising, partial curve].

As for `CCOC(=O)C(=O)Nc1ccccc1C#N`, under setting [1], the AC50 is 0.92 µM [rising, full curve, poor fit].

Turning to `CSCC(=O)N1CCc2ccc(NC(=O)c3ccccc3Cl)cc2C1`, the cell number change is -14.6%.

For `CCCC(=O)Nc1ccc(NC(=O)c2cccc(OC)c2)cn1`, the cell number change was -13.3%.

In the case of `CN1CCN(c2ccc(NC(=S)NC(=O)c3cccc4c(Br)cccc34)cc2)CC1`, the cell number change was 14.3%. Further, the AC50 under setting [1] was 0.651 µM [rising, single point].

As for `CCCOc1ccc(C(=O)NNC(=O)CCNC(=O)c2ccccc2Cl)cc1OC`, the cell number change turned out to be 37.2%. Besides, the half-maximal activity concentration (AC50) under setting [2] is 14.6 µM [rising, single point]. Moreover, the AC50 under setting [1] is 20.6 µM [rising, partial curve].

As for `CC1CCC2C(=O)N(c3cccc(C(=O)Nc4ccc(F)cc4)c3)C(=O)C2C1` (configuration not stated), the cell number change was -39.6%. Also, the AC50 under setting [2] is 29.1 µM [falling, single point]. Besides, the AC50 under setting [1] is 29.1 µM [falling, single point].

For `CCOc1ccc(OCC)c(NC(=O)C2CCCN(S(=O)(=O)c3cccs3)C2)c1` (configuration not stated), the AC50 runs as follows: under setting [2], 4.11 µM [rising, single point]; under setting [1], 6.51 µM [rising, single point].

`O=C(Nc1ccc(S(=O)(=O)N2CCOCC2)cc1)c1ccc([N+](=O)[O-])cc1Cl`: the cell number change was -45.1%. Under setting [2], the AC50 was 29.1 µM [falling, single point].

As to `CCc1ccc(/C=C2/SC(=S)N(CC(=O)Nc3nc4ccccc4s3)C2=O)cc1`, the cell number change was -1.9%. Moreover, the AC50 under setting [1] was 1.64 µM [rising, partial curve].

Regarding `O=C(/C=C/c1c(Cl)nc2ccccn12)Nc1ccc(F)cc1`, the cell number change was -34.8%.

`COC(=O)c1c(C)oc2ccc(OC(=O)N3CCOCC3)cc12`: the cell number change was found to be 32%. Moreover, under setting [2], the AC50 was 11.6 µM [rising, single point].

With `O=C(NCCN1CCOCC1)c1cccc(S(=O)(=O)Nc2cc(Cl)ccc2Cl)c1`, the cell number change is 14%.

Take `Cc1ccc2nc(-c3ccccc3)cc(C(=O)NNC(=O)c3csc(N4CCOCC4)n3)c2c1`: the cell number change was -33.4%. The AC50 under setting [2] is 29.1 µM [falling, single point]. The AC50 under setting [1] is 18.4 µM [falling, single point].

With `CC(C)(C)c1ccc(OCC(=O)NN2Cc3ccccc3C2=N)cc1`, the AC50 under setting [1] was 0.58 µM [falling, single point].

Regarding `CC(C)C[C@@H](CO)N(Cc1ccccc1)S(=O)(=O)N(Cc1ccccc1)[C@H](CO)CC(C)C`, the cell number change is -87.8%. Moreover, the AC50 under setting [2] was 25.9 µM [falling, partial curve, poor fit]. The AC50 under setting [1] was 29.1 µM [falling, single point].

`Cc1cc(C)n(-c2ccc(N3CCOCC3)nn2)n1`: the cell number change is -7.94%.

In the case of `CCCCCCCn1ccc(=N)cc1`, the cell number change is -72.2%. Besides, the AC50 under setting [2] is 29.1 µM [falling, single point]. For the same compound, under setting [1], the AC50 was 29.1 µM [falling, single point].

On to `Cc1ccc2c(c1)N(CC(=O)NC(C)CCc1ccccc1)C(=O)c1cccnc1O2` (configuration not stated), for which the cell number change was -8.07%. The AC50 under setting [1] is 0.116 µM [rising, full curve, poor fit].

As for `CCOc1ccc(NC(=O)CSc2nc3ccccc3c(=O)n2CCCC(=O)NCC2CCCO2)cc1` (configuration not stated), the cell number change was found to be 18%. Also, under setting [2], the half-maximal activity concentration (AC50) was 0.13 µM [rising, full curve, poor fit].

On to `O=C(CSc1ccccn1)Nc1cccc2ccccc12`, for which the cell number change was determined as 1.67%. Also, under setting [2], the AC50 is 5.8 µM [falling, single point]. Also, the AC50 under setting [1] was 5.8 µM [falling, single point].

In the case of `Cc1noc(C)c1S(=O)(=O)N(CC(=O)NCc1ccccc1)c1ccc(C(C)C)cc1`, the cell number change was -56.8%. Further, the AC50 under setting [2] is 29.1 µM [falling, single point]. For the same compound, the AC50 under setting [1] was 29.1 µM [falling, single point].

For `Cc1cc(N=Nc2ccc(Cl)cc2)cc(CN2CCCC2)c1O`, the cell number change is -65.8%. In addition, the AC50 under setting [2] is 16.4 µM [falling, partial curve]. Moreover, the AC50 under setting [1] is 13 µM [falling, partial curve].

Turning to `CC(=O)Nc1nc2ccccc2n1Cc1ccccc1`, the cell number change came out at 28.7%. Moreover, the AC50 under setting [1] was 0.231 µM [rising, full curve, poor fit].

For `Cc1ccc(NC(=O)c2cc(S(=O)(=O)N3CCC4(CC3)OCCO4)ccc2F)cc1`, the AC50 under setting [2] was 3.66 µM [rising, single point] and the AC50 under setting [1] is 6.51 µM [rising, single point].

Turning to `Cc1nn(Cc2ccccc2)c(C)c1NC(=O)CCCn1nc([N+](=O)[O-])cc1C`, the AC50 under setting [1] is 14.6 µM [rising, partial curve, poor fit].

Regarding `Cc1cc(/C=C(\C#N)C(=O)NCCc2c[nH]c3ccccc23)c(C)n1C`, the AC50 runs as follows: under setting [2], 0.13 µM [rising, full curve, poor fit]; under setting [1], 0.103 µM [rising, full curve, poor fit].

Regarding `COc1ccc(S(N)(=O)=O)cc1C(=O)OCC(=O)N1CC(=O)Nc2ccccc21`, the cell number change is -1.5%.

With `O=C(N/N=C/c1ccco1)C1CC(=O)N(c2ccccc2)C1` (configuration not stated), the cell number change is 6.55%. In addition, under setting [1], the AC50 was 1.3 µM [falling, full curve].

Consider `CC(=O)Nc1c(O)[nH]c2ccccc12`, for which the cell number change was -94.2%. Also, the AC50 under setting [2] was 23.1 µM [falling, partial curve, poor fit]. Besides, under setting [1], the AC50 is 29.1 µM [falling, single point].
